The supplement of paper PMC12823440, “Inhibitors supercharge kinase turnover through native proteolytic circuits” (Nature, 2025)
The other results are listed elsewhere or left out. The calls rarely recur for the same compound in another form.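 Kinases, fused to nanoluciferase, were expressed in K562 cells; luminescence was measured every 4 h from 2 to 18 h as percent of control (DMSO = 100%, positive control = 0%). A time point is decreased if signal falls significantly (2 sigma). Hits were called by the authors by a rule that is not shown; the count of time points alone does not decide it.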

Protein sequences, listed by entry. Tags and fused reporters are not part of them. Lines headed by an entry give the natural chain unless they say otherwise; changes in a name come on top.
UniProt O15530: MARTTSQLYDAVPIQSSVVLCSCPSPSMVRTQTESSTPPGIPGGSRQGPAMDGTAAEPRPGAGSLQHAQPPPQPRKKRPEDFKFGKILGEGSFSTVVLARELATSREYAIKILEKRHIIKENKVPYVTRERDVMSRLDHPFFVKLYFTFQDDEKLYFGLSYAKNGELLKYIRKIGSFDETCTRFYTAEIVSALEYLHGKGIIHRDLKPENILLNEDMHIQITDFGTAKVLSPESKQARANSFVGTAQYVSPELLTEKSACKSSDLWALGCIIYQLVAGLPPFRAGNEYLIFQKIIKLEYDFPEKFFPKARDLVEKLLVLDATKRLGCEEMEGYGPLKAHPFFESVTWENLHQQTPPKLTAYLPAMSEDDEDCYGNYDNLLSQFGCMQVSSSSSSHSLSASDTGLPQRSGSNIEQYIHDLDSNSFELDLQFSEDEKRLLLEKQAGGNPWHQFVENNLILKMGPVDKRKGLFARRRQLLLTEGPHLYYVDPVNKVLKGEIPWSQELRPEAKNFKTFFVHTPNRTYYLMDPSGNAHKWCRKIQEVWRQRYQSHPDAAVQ
UniProt P42356, whole entry, looked up: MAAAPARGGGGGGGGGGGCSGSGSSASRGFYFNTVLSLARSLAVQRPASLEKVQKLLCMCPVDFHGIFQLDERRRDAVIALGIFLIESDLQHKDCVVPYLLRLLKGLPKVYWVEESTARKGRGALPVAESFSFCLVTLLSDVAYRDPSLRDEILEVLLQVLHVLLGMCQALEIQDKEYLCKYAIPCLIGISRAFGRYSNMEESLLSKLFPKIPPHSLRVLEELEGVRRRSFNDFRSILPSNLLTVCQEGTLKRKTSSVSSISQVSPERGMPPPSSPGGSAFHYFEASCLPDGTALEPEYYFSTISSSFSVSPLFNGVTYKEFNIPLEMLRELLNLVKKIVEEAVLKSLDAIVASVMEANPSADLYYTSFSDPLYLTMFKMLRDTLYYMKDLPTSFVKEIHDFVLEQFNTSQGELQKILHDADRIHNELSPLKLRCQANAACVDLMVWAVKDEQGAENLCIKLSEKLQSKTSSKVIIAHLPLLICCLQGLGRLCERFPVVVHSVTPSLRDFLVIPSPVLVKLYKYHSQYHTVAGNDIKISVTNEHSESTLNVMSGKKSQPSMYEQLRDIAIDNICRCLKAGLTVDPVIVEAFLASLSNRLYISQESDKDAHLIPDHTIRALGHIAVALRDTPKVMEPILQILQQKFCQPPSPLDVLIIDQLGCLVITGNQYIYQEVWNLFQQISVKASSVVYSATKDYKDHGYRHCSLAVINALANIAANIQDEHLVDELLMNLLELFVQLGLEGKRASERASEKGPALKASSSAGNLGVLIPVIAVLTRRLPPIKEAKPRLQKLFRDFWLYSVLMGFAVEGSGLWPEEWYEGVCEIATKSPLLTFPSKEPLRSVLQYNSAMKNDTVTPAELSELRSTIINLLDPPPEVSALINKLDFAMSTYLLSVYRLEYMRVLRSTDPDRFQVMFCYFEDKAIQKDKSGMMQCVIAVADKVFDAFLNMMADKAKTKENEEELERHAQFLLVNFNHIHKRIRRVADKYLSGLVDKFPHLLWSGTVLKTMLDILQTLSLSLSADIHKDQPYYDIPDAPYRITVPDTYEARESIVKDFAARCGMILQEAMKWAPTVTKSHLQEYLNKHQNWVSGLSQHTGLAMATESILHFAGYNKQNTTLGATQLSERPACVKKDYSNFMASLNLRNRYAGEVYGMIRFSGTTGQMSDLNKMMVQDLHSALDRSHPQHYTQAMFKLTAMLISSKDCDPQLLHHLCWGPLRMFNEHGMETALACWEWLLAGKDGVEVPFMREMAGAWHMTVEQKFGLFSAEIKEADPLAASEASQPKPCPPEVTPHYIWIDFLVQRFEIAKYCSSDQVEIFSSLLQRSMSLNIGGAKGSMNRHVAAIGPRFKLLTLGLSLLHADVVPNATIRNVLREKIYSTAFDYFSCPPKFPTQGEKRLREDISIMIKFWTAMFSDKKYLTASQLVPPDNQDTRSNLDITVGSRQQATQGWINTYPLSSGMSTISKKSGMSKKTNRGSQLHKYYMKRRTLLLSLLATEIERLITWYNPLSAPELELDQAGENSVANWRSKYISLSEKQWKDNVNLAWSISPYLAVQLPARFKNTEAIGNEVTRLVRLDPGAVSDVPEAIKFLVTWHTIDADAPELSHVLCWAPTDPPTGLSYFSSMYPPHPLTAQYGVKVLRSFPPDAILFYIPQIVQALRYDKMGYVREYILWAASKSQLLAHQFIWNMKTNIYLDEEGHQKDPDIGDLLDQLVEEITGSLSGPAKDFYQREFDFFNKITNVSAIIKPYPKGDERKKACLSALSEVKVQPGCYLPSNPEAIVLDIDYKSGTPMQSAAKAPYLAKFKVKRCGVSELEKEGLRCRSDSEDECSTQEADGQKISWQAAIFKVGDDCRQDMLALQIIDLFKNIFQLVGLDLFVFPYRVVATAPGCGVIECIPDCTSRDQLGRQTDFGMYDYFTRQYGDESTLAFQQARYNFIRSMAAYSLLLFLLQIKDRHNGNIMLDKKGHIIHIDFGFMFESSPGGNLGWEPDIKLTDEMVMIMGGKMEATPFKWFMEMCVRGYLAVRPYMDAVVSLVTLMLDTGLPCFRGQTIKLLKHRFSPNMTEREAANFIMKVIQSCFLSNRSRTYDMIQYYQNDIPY
UniProt P53350, whole entry: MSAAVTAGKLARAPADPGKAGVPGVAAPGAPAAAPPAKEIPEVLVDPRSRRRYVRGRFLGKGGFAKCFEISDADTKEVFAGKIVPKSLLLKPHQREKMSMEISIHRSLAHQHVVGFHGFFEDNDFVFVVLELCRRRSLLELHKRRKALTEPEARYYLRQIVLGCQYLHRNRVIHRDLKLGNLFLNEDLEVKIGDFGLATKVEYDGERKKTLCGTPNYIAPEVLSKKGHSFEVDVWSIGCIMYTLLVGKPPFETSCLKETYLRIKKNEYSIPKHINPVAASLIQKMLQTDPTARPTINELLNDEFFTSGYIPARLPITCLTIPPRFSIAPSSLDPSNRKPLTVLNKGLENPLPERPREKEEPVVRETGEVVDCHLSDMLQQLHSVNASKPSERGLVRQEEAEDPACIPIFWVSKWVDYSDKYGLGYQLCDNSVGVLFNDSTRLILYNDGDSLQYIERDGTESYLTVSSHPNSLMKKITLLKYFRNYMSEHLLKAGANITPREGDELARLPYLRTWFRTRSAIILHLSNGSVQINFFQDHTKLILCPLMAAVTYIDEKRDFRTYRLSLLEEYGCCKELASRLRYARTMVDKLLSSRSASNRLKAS
UniProt P07949, whole entry, looked up: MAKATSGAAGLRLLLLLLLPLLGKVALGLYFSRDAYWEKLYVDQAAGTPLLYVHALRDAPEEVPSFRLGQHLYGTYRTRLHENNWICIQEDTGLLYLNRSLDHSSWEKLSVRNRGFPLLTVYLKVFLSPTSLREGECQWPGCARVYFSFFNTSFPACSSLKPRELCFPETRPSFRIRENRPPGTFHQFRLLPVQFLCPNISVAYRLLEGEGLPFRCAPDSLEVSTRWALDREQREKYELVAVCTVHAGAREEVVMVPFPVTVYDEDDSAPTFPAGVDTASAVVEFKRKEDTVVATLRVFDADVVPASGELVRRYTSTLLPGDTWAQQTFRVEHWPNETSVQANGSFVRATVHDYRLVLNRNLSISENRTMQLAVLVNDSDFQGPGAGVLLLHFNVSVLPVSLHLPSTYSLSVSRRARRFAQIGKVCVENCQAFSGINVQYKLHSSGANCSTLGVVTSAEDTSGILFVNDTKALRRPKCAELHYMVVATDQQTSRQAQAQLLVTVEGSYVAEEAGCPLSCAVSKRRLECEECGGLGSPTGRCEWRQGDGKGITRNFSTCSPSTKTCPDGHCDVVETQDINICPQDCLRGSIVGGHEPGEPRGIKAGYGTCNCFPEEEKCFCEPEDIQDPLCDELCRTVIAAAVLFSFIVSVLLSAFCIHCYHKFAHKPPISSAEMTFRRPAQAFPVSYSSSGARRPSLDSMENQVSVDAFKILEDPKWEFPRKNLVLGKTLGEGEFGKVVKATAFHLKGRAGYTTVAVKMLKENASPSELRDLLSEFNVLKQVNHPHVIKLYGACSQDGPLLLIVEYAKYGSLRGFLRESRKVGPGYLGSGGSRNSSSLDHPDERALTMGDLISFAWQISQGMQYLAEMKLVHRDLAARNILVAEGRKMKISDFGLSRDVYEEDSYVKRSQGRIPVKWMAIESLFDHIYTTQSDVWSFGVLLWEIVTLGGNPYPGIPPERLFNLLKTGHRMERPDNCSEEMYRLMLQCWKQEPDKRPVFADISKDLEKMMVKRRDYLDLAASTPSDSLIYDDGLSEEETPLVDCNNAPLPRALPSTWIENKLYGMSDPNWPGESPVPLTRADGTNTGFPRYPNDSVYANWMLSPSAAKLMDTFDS
UniProt P07949, whole entry M918T, looked up: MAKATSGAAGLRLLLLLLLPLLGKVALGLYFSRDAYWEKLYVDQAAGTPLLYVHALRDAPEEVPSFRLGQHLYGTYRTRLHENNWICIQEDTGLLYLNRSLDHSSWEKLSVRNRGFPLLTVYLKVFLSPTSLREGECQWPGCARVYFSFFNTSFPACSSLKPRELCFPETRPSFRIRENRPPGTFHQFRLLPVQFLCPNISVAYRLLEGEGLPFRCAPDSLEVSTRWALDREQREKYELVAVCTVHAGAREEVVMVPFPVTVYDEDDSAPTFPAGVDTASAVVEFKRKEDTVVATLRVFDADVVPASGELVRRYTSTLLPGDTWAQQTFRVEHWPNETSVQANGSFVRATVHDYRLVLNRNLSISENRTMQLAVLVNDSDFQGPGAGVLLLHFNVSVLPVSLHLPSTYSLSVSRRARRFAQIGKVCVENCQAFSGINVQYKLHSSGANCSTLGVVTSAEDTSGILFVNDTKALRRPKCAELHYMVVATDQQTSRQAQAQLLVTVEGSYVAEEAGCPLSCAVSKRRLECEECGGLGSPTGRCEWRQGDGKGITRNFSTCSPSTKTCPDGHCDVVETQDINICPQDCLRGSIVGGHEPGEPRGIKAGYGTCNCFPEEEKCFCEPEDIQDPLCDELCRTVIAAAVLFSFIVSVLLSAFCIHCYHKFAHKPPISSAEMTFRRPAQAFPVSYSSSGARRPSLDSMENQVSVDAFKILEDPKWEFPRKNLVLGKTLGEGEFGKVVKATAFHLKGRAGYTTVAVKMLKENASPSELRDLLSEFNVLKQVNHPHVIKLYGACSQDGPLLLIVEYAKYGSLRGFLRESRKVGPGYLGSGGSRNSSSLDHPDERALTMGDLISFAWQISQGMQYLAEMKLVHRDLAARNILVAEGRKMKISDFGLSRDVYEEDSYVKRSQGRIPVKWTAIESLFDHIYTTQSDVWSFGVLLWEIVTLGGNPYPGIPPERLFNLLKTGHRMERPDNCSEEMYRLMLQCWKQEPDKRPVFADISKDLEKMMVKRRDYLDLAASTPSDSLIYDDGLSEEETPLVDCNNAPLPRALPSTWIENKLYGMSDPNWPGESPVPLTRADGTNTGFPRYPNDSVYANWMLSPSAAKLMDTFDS
UniProt Q13546: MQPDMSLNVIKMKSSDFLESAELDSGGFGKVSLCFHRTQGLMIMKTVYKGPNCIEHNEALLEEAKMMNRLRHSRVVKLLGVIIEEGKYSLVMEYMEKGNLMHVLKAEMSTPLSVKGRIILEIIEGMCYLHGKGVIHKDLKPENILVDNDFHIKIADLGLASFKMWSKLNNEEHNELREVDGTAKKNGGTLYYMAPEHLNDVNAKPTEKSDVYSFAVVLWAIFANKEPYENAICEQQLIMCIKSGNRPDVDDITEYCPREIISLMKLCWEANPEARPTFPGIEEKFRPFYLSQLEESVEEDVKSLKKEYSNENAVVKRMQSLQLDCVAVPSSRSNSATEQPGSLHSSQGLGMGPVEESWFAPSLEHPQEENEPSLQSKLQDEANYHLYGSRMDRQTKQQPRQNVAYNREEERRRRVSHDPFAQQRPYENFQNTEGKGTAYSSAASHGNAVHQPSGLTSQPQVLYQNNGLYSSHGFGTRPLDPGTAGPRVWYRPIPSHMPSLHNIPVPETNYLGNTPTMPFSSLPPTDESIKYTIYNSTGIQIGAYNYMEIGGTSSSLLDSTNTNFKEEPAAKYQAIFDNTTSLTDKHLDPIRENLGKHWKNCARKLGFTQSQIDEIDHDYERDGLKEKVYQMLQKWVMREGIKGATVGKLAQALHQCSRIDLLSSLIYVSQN
UniProt Q9NYA1, whole entry: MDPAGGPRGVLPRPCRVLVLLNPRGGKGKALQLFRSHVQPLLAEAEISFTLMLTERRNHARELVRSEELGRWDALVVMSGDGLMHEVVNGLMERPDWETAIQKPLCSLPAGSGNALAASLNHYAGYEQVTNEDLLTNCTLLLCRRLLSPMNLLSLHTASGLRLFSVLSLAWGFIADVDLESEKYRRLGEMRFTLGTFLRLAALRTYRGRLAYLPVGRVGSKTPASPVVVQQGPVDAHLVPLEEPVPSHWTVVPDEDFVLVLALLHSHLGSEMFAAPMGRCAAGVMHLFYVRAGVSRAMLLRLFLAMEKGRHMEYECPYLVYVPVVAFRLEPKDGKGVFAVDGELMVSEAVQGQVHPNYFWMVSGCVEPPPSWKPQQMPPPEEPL

Columns and labels:
Experiment in all cases: kinase-Nluc reporter destabilization hit call (1 = scored as downregulated) (binary); higher = compound decreases kinase abundance
Conditions in all cases: K562; 2-18 h
[1] = target: PDPK1 (UniProt O15530)
[2] = target: PIK4CA (UniProt P42356)
[3] = target: PIK4CB (UniProt Q9UBF8)
[4] = target: PLK1 (UniProt P53350)
[5] = target: PRKAA1 (UniProt Q13131)
[6] = target: PRKCA (UniProt P17252)
[7] = target: PTK2 (UniProt Q05397)
[8] = target: PTK2B (UniProt Q14289)
[9] = target: RAF1 (UniProt P04049)
[10] = target: RAF1_S257L (clone: RAF1_mut) (UniProt P04049)
[11] = target: RET (UniProt P07949)
[12] = target: RET_M918T (clone: RET_mut) (UniProt P07949)
[13] = target: RIOK1 (UniProt Q9BRS2)
[14] = target: RIPK1 (UniProt Q13546)
[15] = target: RIPK2 (UniProt O43353)
[16] = target: ROR2 (UniProt Q01974)
[17] = target: RPS6KA1 (UniProt Q15418)
[18] = target: SPHK1 (UniProt Q9NYA1)
[19] = target: SRC (UniProt P12931)
[20] = target: STK24 (UniProt Q9Y6E0)

Measured: kinase-Nluc reporter destabilization hit call

COc1cc(/C=C/c2ccc(NC(=O)/C=C/c3cc(OC)c(OC)c(OC)c3)cc2)cc(OC)c1 (2.5 µM)
inactive: [1] 0 | [2] 0 | [3] 0 | [4] 0 | [5] 0 | [6] 0 | [7] 0 | [8] 0 | [9] 0 | [10] 0 | [11] 0 | [12] 0 | [13] 0 | [14] 0 | [15] 0 | [16] 0 | [17] 0 | [18] 0 | [19] 0 | [20] 0

O=c1[nH]nc(Sc2ncc([N+](=O)[O-])s2)n1-c1ccc2c(c1)OCCO2 (2.5 µM)
inactive: [1] 0 | [2] 0 | [3] 0 | [4] 0 | [5] 0 | [6] 0 | [7] 0 | [8] 0 | [9] 0 | [10] 0 | [11] 0 | [12] 0 | [13] 0 | [14] 0 | [15] 0 | [16] 0 | [17] 0 | [18] 0 | [19] 0 | [20] 0

Oc1ccc2ccccc2c1SSc1c(O)ccc2ccccc12 (10 µM)
inactive: [1] 0 | [2] 0 | [3] 0 | [4] 0 | [5] 0 | [6] 0 | [7] 0 | [8] 0 | [9] 0 | [10] 0 | [11] 0 | [12] 0 | [13] 0 | [14] 0 | [15] 0 | [16] 0 | [17] 0 | [18] 0 | [19] 0 | [20] 0

CC1=C(C(=O)Nc2ccc3[nH]ncc3c2)C(c2ccc(F)c(C(=O)NCc3ccccn3)c2)NC(=O)N1 (stereo not given) (10 µM)
inactive: [1] 0 | [2] 0 | [3] 0 | [4] 0 | [5] 0 | [6] 0 | [7] 0 | [8] 0 | [9] 0 | [10] 0 | [11] 0 | [12] 0 | [13] 0 | [14] 0 | [15] 0 | [16] 0 | [17] 0 | [18] 0 | [19] 0 | [20] 0

COC[C@H]1Cn2cc(-c3nc(Nc4ccnn4C)ncc3C)nc2C(=O)N1Cc1ccc(F)c(F)c1 (10 µM)
inactive: [1] 0 | [2] 0 | [3] 0 | [4] 0 | [5] 0 | [6] 0 | [7] 0 | [8] 0 | [9] 0 | [10] 0 | [11] 0 | [12] 0 | [13] 0 | [14] 0 | [15] 0 | [16] 0 | [17] 0 | [18] 0 | [19] 0 | [20] 0

O=C(O)/C=C/c1cc(Br)c(Br)c(Br)c1Br (10 µM)
inactive: [1] 0 | [2] 0 | [3] 0 | [4] 0 | [5] 0 | [6] 0 | [7] 0 | [8] 0 | [9] 0 | [10] 0 | [11] 0 | [12] 0 | [13] 0 | [14] 0 | [15] 0 | [16] 0 | [17] 0 | [18] 0 | [19] 0 | [20] 0

N#C/C(=C\c1ccc[nH]1)c1ccc(Cl)c(Cl)c1 (2.5 µM)
inactive: [1] 0 | [2] 0 | [3] 0 | [4] 0 | [5] 0 | [6] 0 | [7] 0 | [8] 0 | [9] 0 | [10] 0 | [11] 0 | [12] 0 | [13] 0 | [14] 0 | [15] 0 | [16] 0 | [17] 0 | [18] 0 | [19] 0 | [20] 0

O=C1NCCSc2c1sc1ccc(O)cc21 (2.5 µM)
inactive: [1] 0 | [2] 0 | [3] 0 | [4] 0 | [5] 0 | [6] 0 | [7] 0 | [8] 0 | [9] 0 | [10] 0 | [11] 0 | [12] 0 | [13] 0 | [14] 0 | [15] 0 | [16] 0 | [17] 0 | [18] 0 | [19] 0 | [20] 0

CN(C/C=C/C(=O)Nc1ccc(C(=O)Nc2cccc(Nc3ncc(Cl)c(-c4c[nH]c5ccccc45)n3)c2)cc1)CCCNC(=O)NCCOCCOCCOCCNC(=O)CCCC[C@@H]1SC[C@@H]2NC(=O)N[C@@H]21 (2.5 µM)
inactive: [1] 0 | [2] 0 | [3] 0 | [4] 0 | [5] 0 | [6] 0 | [7] 0 | [8] 0 | [9] 0 | [10] 0 | [11] 0 | [12] 0 | [13] 0 | [14] 0 | [15] 0 | [16] 0 | [17] 0 | [18] 0 | [19] 0 | [20] 0

CCCCCC1CC1CC1CC1CCCCCCCC(=O)O (stereo not given) (10 µM)
inactive: [1] 0 | [2] 0 | [3] 0 | [4] 0 | [5] 0 | [6] 0 | [7] 0 | [8] 0 | [9] 0 | [10] 0 | [11] 0 | [12] 0 | [13] 0 | [14] 0 | [15] 0 | [16] 0 | [17] 0 | [18] 0 | [19] 0 | [20] 0

O=S(=O)(N=Cc1c(O)ccc2ccccc12)c1cccs1 (10 µM)
inactive: [1] 0 | [2] 0 | [3] 0 | [4] 0 | [5] 0 | [6] 0 | [7] 0 | [8] 0 | [9] 0 | [10] 0 | [11] 0 | [12] 0 | [13] 0 | [14] 0 | [15] 0 | [16] 0 | [17] 0 | [18] 0 | [19] 0 | [20] 0

CC[C@H](C)[C@H](NC(=O)[C@H](CCCCN)NC(=O)[C@H](CC(C)C)NC(=O)[C@@H]1CCCN1C(=O)[C@H](CCC(=O)O)NC(=O)[C@H](Cc1ccc(O)cc1)NC(=O)[C@@H](NC(=O)[C@H](CO)NC(=O)CNC(=O)[C@H](CO)NC(=O)[C@H](CCCN=C(N)N)NC(=O)[C@H](CCCCN)NC(=O)[C@@H](NC(=O)[C@@H](N)CCCN=C(N)N)[C@@H](C)O)C(C)C)C(=O)O [Malantide] (10 µM)
inactive: [1] 0 | [2] 0 | [3] 0 | [4] 0 | [5] 0 | [6] 0 | [7] 0 | [8] 0 | [9] 0 | [10] 0 | [11] 0 | [12] 0 | [13] 0 | [14] 0 | [15] 0 | [16] 0 | [17] 0 | [18] 0 | [19] 0 | [20] 0

Some of these compounds in order of SMILES length, low to high.
O=C1NCCSc2c1sc1ccc(O)cc21 (2.5 µM)
inactive: [1] 0 | [2] 0 | [3] 0 | [4] 0 | [5] 0 | [6] 0 | [7] 0 | [8] 0 | [9] 0 | [10] 0 | [11] 0 | [12] 0 | [13] 0 | [14] 0 | [15] 0 | [16] 0 | [17] 0 | [18] 0 | [19] 0 | [20] 0

CCCCCC1CC1CC1CC1CCCCCCCC(=O)O (stereo not given) (10 µM)
inactive: [1] 0 | [2] 0 | [3] 0 | [4] 0 | [5] 0 | [6] 0 | [7] 0 | [8] 0 | [9] 0 | [10] 0 | [11] 0 | [12] 0 | [13] 0 | [14] 0 | [15] 0 | [16] 0 | [17] 0 | [18] 0 | [19] 0 | [20] 0

O=S(=O)(N=Cc1c(O)ccc2ccccc12)c1cccs1 (10 µM)
inactive: [1] 0 | [2] 0 | [3] 0 | [4] 0 | [5] 0 | [6] 0 | [7] 0 | [8] 0 | [9] 0 | [10] 0 | [11] 0 | [12] 0 | [13] 0 | [14] 0 | [15] 0 | [16] 0 | [17] 0 | [18] 0 | [19] 0 | [20] 0

(listing goes on)

C=C[C@H]1[C@H](O[C@@H]2O[C@H](CO)[C@@H](O)[C@H](O)[C@H]2O)OC=C(C(=O)OC)[C@H]1CCOC(=O)c1cc(O)c(O)c(O)c1 [Cornuside] (10 µM)
inactive: [1] 0 | [2] 0 | [3] 0 | [4] 0 | [5] 0 | [6] 0 | [7] 0 | [8] 0 | [9] 0 | [10] 0 | [11] 0 | [12] 0 | [13] 0 | [14] 0 | [15] 0 | [16] 0 | [17] 0 | [18] 0 | [19] 0 | [20] 0

COc1cc(OC)c(/C=C/S(=O)(=O)Cc2ccc(OC)c(NCC(=O)O)c2)c(OC)c1 [Rigosertib (sodium)] (10 µM)
inactive: [1] 0 | [2] 0 | [3] 0 | [4] 0 | [5] 0 | [6] 0 | [7] 0 | [8] 0 | [9] 0 | [10] 0 | [11] 0 | [12] 0 | [13] 0 | [14] 0 | [15] 0 | [16] 0 | [17] 0 | [18] 0 | [19] 0 | [20] 0

O=C(O)[C@]1(Cc2cccc(Nc3nccs3)n2)CC[C@@H](Oc2cccc(Cl)c2F)CC1 (2.5 µM)
inactive: [1] 0 | [2] 0 | [3] 0 | [4] 0 | [5] 0 | [6] 0 | [7] 0 | [8] 0 | [9] 0 | [10] 0 | [11] 0 | [12] 0 | [13] 0 | [14] 0 | [15] 0 | [16] 0 | [17] 0 | [18] 0 | [19] 0 | [20] 0

O=C1c2c(O)cc(O)cc2O[C@H](c2cc(O)c(O)c(O)c2)[C@H]1O [Dihydromyricetin] (10 µM)
inactive: [1] 0 | [2] 0 | [3] 0 | [4] 0 | [5] 0 | [6] 0 | [7] 0 | [8] 0 | [9] 0 | [10] 0 | [11] 0 | [12] 0 | [13] 0 | [14] 0 | [15] 0 | [16] 0 | [17] 0 | [18] 0 | [19] 0 | [20] 0

C[C@@H]1CN(Cc2cn[nH]c2-c2ccc(C#N)cc2)CCN1c1ccc(C(F)(F)F)cn1 (2.5 µM)
inactive: [1] 0 | [2] 0 | [3] 0 | [4] 0 | [5] 0 | [6] 0 | [7] 0 | [8] 0 | [9] 0 | [10] 0 | [11] 0 | [12] 0 | [13] 0 | [14] 0 | [15] 0 | [16] 0 | [17] 0 | [18] 0 | [19] 0 | [20] 0

CC(C)[C@H](CO)Nc1nc(Nc2ccc(C(=O)O)c(Cl)c2)c2ncn(C(C)C)c2n1 [Purvalanol B] (10 µM)
inactive: [1] 0 | [2] 0 | [3] 0 | [4] 0 | [5] 0 | [6] 0 | [7] 0 | [8] 0 | [9] 0 | [10] 0 | [11] 0 | [12] 0 | [13] 0 | [14] 0 | [15] 0 | [16] 0 | [17] 0 | [18] 0 | [19] 0 | [20] 0
